# Hit rate of the full screen: of about 400,000 compounds, about 5,500 (1.4%) were called active. The shares of active, inactive and inconclusive entries below differ from those in the screen. Calls come from the whole dose curve; as a rule, active = well fitted cell-killing curve with a large enough effect; inconclusive = small, poorly fitted or top-dose-only effect, or effect the other way; inactive = flat fitted curve, though single readings scatter. Where the call is inconclusive, the potency comes from a doubtful curve fit.
# Assay: qHTS assay for MDR1-selective chemotherapeutics: Primary screen using the parental adenocarcinoma cell KB-3-1; note: nearly all actives have a fitted effect of over 60% in size
# Settings: KB-3-1 viability, CellTiter-Glo ATP luminescence, 72 h; activity change, negative = cytotoxic: at 46.1 µM (top of the series)
# In short: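 KB-3-1 cells, DMEM (no phenol red) + 10% FBS; compound by pin transfer, 72 h, 37 °C. Readout: CellTiter-Glo luminescence after 10 min. Data normalized, curve-fitted.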
# % is set by controls: 0 for no effect and ±100 for the full control effect; potency is the fitted concentration of half-maximal effect.
SMILES,Potency,"activity change, negative = cytotoxic"
CCN(CC)S(=O)(=O)c1cccc(-c2nnc(SCCOc3ccc(Cl)cc3)o2)c1,"inconclusive: 29.1 µM [cytotoxic, single point]",–
O=C(/C=C/c1cccs1)Nc1cccc(NC(=O)/C=C/c2cccs2)n1,active: 23.1 µM,–
CSc1ccc(C#N)cc1NC(=O)c1cccnc1Cl,–,inactive: 0.327%
CCOC(=O)c1sc(NC(=O)CNCc2ccccn2)c(C(=O)OCC)c1C,"inconclusive: 23.1 µM [cytotoxic, partial curve, poor fit]",–
Cc1cc(C)c(S(=O)(=O)N2CCCCC2CCNC(=O)C(=O)NC2CC2)c(C)c1 (centres undefined),"inconclusive: 10.3 µM [cytotoxic, partial curve, poor fit]",–
COc1ccccc1/C=C/CN1CCCC(CO)(Cc2cccc(Cl)c2)C1 (centres undefined),–,inactive: -17%
CCCN=C1N(C)C[C@@H]2[C@@H]3C(=O)N(C)C(=O)[C@@H]3[C@](CC)(C(=O)OC)N12,"inconclusive: 2.59 µM [rising, partial curve, poor fit]",–
Cc1ccc(C(=O)N2CCC3(CC2)Oc2ccc(Cl)cc2C(=O)C32CC(c3ccc(Cl)cc3)=NO2)s1 (centres undefined),–,inactive: 6.13%
Cc1noc(C)c1S(=O)(=O)N1CCCCC1c1cc(C(=O)Nc2cccc3c2CCCC3)no1 (centres undefined),–,inactive: -5.49%
CCc1cccc(CC)c1NC(=S)NCCc1c(C)[nH]c2ccccc12,"inconclusive: 25.9 µM [cytotoxic, single point]",–
O=Cc1ccsc1B(O)O,"inconclusive: 18.4 µM [rising, single point]",–
O=C(CN1CCN(CC(=O)c2ccccc2)CC1)c1ccccc1,"inconclusive: 29.1 µM [cytotoxic, single point]",–
CCC(=O)Nc1nc2ccc([N+](=O)[O-])cc2s1,"inconclusive: 29.1 µM [cytotoxic, single point]",–
Cn1c(=O)c2c(nc(CN3CCc4ccccc4C3)n2Cc2cccc(Cl)c2)n(C)c1=O,"inconclusive: 18.4 µM [cytotoxic, single point]",–
CCOc1ccc(NC(=O)Nc2ccon2)cc1,"inconclusive: 29.1 µM [cytotoxic, single point]",–
COc1ccc2[nH]c3c(c2c1)CCN1C(=O)C(CC(=O)NC/C=C(\C)CCC=C(C)C)C[C@H](C(=O)N(C(C)C)C(C)C)[C@@]31C (some centres undefined),"inconclusive: 18.4 µM [cytotoxic, single point]",–
N#Cc1c(NC(=O)c2cc(C3CC3)on2)sc2c1CCC2,active: 13 µM,–
NC(=S)n1[nH]c(-c2ccc([N+](=O)[O-])cc2)c(N=Nc2ccccc2[N+](=O)[O-])c1=O,–,inactive: 0.564%
Cc1ccc(NC(=O)CNc2ccccc2CN(C)C2CCCCC2)cc1,–,inactive: -0.0966%

# A different layout for some results above.
SMILES | Potency | activity change, negative = cytotoxic
CCN(CC)S(=O)(=O)c1cccc(-c2nnc(SCCOc3ccc(Cl)cc3)o2)c1 | inconclusive: 29.1 µM [cytotoxic, single point] | –
O=C(/C=C/c1cccs1)Nc1cccc(NC(=O)/C=C/c2cccs2)n1 | active: 23.1 µM | –
